From PMC9638859
These are yes or no findings as the source states them, for the method shown. Binding seen in cells or lysates may run through a third protein. Binding can be weak; no strength is given.

Target: ERK (mouse (endogenous in TDiN ES cells))
Experiment: co-IP; endogenous immunoprecipitation from TDiN ES cell lysate, with or without induction of NANOG by Doxycycline; CoIP lysis buffer with 350 mM NaCl, 0.7% NP40; protein A/G magnetic beads; washed with TBS150; western blot

binding: binds
B1: NONO (protein, UniProt Q99K48 1-473)
chain: MQSNKAFNLEKQNHTPRKHHQHHHQQHHQQQQQQQQQQPPPPIPANGQQASSQNEGLTIDLKNFRKPGEKTFTQRSRLFVGNLPPDITEEEMRKLFEKYGKAGEVFIHKDKGFGFIRLETRTLAEIAKVELDNMPLRGKQLRVRFACHSASLTVRNLPQYVSNELLEEAFSVFGQVERAVVIVDDRGRPSGKGIVEFSGKPAARKALDRCSEGSFLLTTFPRPVTVEPMDQLDDEEGLPEKLVIKNQQFHKEREQPPRFAQPGSFEYEYAMRWKALIEMEKQQQDQVDRNIKEAREKLEMEMEAARHEHQVMLMRQDLMRRQEELRRMEELHNQEVQKRKQLELRQEEERRRREEEMRRQQEEMMRRQQEGFKGTFPDAREQEIRMGQMAMGGAMGINNRGAMPPAPVPPGTPAPPGPATMMPDGTLGLTPPTTERFGQAATMEGIGAIGGTPPAFNRPAPGAEFAPNKRRRY
